PubChem BioAssay AID1159591, NIAID – 2016
Shown is a random part of 756 deposited reagents. In the full data, 130 (17%) got an active call. 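Active calls include both lower and higher Tnf reporter signal.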 Entries without a mark were called inactive. Reagents against one gene are numbered here. The record does not give: the amount of reagent.

Aim: 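Which TLR signalling genes macrophages need for R848-driven Tnf promoter activity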
System: mouse RAW264.7 G9 macrophage reporter clone (GFP-p65, Tnf promoter-mCherry)
Knock-down reagent: single siRNA against mouse genes
Time to read-out: cells assayed 48 to 72 hours after siRNA transfection; R848 for 16 hours before fixing
Conditions: R848 (TLR7/8 agonist) for 16 hours before fixation; dose not given
Detection: 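After R848 for 16 hours, nuclear Tnf promoter mCherry signal imaged minus background, scaled per plate by median and MAD into robust z against non-targeting controls, averaged across replicates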
Direction: mean Tnf reporter z-score: higher = stronger Tnf promoter reporter signal than controls
Call rule: 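Absolute z above 1, 1.5, 2 or 2.5 scores 25 up to 100; no stated active threshold; in practice calls fall at roughly z ≤ -1.5 or z ≥ 1.5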
Calls: active = reporter clearly up or down; inactive = little reporter change

For Ticam1 (GeneID 106759) #1, what does the deposit list?
mean Tnf reporter z-score: 0.331

With Ticam1 (GeneID 106759) #2, how do the results read?
mean Tnf reporter z-score: 0.858

What is on record for Ticam1 (GeneID 106759) #3?
mean Tnf reporter z-score: -0.287

What did the screen give for Ticam1 (GeneID 106759) #4?
mean Tnf reporter z-score: -1.53 (active)

With Ticam1 (GeneID 106759) #5, what was measured?
mean Tnf reporter z-score: -0.482

What did the screen give for Ticam1 (GeneID 106759) #6?
mean Tnf reporter z-score: -1.25

For Pik3r2 (GeneID 18709) #1, what was measured?
mean Tnf reporter z-score: 0.211

Which result is listed for Pik3r2 (GeneID 18709) #2?
mean Tnf reporter z-score: -0.227

With Pik3r2 (GeneID 18709) #3, what does the deposit list?
mean Tnf reporter z-score: -1.55 (active)

How did the screen score Pik3r2 (GeneID 18709) #4?
mean Tnf reporter z-score: 0.137

How did the screen score Pik3r2 (GeneID 18709) #5?
mean Tnf reporter z-score: 0.265

What did the screen give for Pik3r2 (GeneID 18709) #6?
mean Tnf reporter z-score: -0.212

With Pik3r5 (GeneID 320207) #1, what was measured?
mean Tnf reporter z-score: -0.141

What is on record for Pik3r5 (GeneID 320207) #2?
mean Tnf reporter z-score: -1.32

Which result is listed for Pik3r5 (GeneID 320207) #3?
mean Tnf reporter z-score: -1.45

For Pik3r5 (GeneID 320207) #4, what does the deposit list?
mean Tnf reporter z-score: -0.264

How did the screen score Pik3r5 (GeneID 320207) #5?
mean Tnf reporter z-score: -1.9 (active)

Which result is listed for Pik3r5 (GeneID 320207) #6?
mean Tnf reporter z-score: 0.131

How did the screen score Itgam (GeneID 16409) #1?
mean Tnf reporter z-score: -0.376

How did the screen score Itgam (GeneID 16409) #2?
mean Tnf reporter z-score: -0.681

How did the screen score Itgam (GeneID 16409) #3?
mean Tnf reporter z-score: -0.0876

With Itgam (GeneID 16409) #4, how do the results read?
mean Tnf reporter z-score: 0.239

How did the screen score Itgam (GeneID 16409) #5?
mean Tnf reporter z-score: -0.745

For Itgam (GeneID 16409) #6, what was measured?
mean Tnf reporter z-score: -0.404

What did the screen give for Akt1 (GeneID 11651) #1?
mean Tnf reporter z-score: 1.04

For Akt1 (GeneID 11651) #2, how do the results read?
mean Tnf reporter z-score: -1.77 (active)

How did the screen score Akt1 (GeneID 11651) #3?
mean Tnf reporter z-score: 0.492

For Akt1 (GeneID 11651) #4, what does the deposit list?
mean Tnf reporter z-score: 0.00249

What is on record for Akt1 (GeneID 11651) #5?
mean Tnf reporter z-score: -1.11

For Akt1 (GeneID 11651) #6, what was measured?
mean Tnf reporter z-score: -0.198

Which result is listed for Tlr9 (GeneID 81897) #1?
mean Tnf reporter z-score: 0.168

What did the screen give for Tlr9 (GeneID 81897) #2?
mean Tnf reporter z-score: -1.48

How did the screen score Tlr9 (GeneID 81897) #3?
mean Tnf reporter z-score: 0.988

For Tlr9 (GeneID 81897) #4, what does the deposit list?
mean Tnf reporter z-score: -0.119

Which result is listed for Tlr9 (GeneID 81897) #5?
mean Tnf reporter z-score: -0.791

For Tlr9 (GeneID 81897) #6, what does the deposit list?
mean Tnf reporter z-score: -0.84

With Ripk3 (GeneID 56532) #1, how do the results read?
mean Tnf reporter z-score: -0.2

For Ripk3 (GeneID 56532) #2, what was measured?
mean Tnf reporter z-score: -0.0756

With Ripk3 (GeneID 56532) #3, how do the results read?
mean Tnf reporter z-score: 0.775

What is on record for Ripk3 (GeneID 56532) #4?
mean Tnf reporter z-score: -0.615

For Ripk3 (GeneID 56532) #5, how do the results read?
mean Tnf reporter z-score: 1.12

How did the screen score Ripk3 (GeneID 56532) #6?
mean Tnf reporter z-score: -1.31

How did the screen score Irf5 (GeneID 27056) #1?
mean Tnf reporter z-score: -3.28 (active)

What did the screen give for Irf5 (GeneID 27056) #2?
mean Tnf reporter z-score: 0.25

What did the screen give for Irf5 (GeneID 27056) #3?
mean Tnf reporter z-score: 0.127

For Irf5 (GeneID 27056) #4, what was measured?
mean Tnf reporter z-score: -0.637

What is on record for Irf5 (GeneID 27056) #5?
mean Tnf reporter z-score: -0.167

With Irf5 (GeneID 27056) #6, what was measured?
mean Tnf reporter z-score: -0.749
